Chains of the proteins cited; added tags and fusions are not shown. Lines headed by an entry give the natural chain unless they say otherwise; changes in a name come on top.
UniProt Q86TI2: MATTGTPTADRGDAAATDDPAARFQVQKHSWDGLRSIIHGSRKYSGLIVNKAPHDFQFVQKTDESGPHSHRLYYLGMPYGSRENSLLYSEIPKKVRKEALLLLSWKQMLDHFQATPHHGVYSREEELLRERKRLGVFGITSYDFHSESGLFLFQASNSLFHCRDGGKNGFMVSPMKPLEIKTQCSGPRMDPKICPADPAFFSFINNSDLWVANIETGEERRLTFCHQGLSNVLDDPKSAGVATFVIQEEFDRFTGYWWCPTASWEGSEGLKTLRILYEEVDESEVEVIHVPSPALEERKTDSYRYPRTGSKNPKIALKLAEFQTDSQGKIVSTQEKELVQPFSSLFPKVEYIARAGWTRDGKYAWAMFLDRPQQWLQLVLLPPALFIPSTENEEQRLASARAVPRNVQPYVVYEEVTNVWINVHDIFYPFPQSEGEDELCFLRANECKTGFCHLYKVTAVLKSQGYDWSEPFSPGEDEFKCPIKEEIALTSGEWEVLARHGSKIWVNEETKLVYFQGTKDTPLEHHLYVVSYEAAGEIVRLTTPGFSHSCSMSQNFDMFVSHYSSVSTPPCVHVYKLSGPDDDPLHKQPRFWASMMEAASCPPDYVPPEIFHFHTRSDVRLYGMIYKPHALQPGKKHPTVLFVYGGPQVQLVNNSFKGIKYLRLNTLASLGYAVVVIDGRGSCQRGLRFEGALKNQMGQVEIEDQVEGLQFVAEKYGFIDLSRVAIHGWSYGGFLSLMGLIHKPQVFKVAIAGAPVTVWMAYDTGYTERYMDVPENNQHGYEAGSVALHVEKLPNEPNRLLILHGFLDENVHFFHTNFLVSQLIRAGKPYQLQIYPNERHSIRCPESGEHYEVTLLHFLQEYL
UniProt O00483: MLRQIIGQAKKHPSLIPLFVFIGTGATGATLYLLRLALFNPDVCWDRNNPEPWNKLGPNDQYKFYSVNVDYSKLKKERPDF
UniProt Q14145: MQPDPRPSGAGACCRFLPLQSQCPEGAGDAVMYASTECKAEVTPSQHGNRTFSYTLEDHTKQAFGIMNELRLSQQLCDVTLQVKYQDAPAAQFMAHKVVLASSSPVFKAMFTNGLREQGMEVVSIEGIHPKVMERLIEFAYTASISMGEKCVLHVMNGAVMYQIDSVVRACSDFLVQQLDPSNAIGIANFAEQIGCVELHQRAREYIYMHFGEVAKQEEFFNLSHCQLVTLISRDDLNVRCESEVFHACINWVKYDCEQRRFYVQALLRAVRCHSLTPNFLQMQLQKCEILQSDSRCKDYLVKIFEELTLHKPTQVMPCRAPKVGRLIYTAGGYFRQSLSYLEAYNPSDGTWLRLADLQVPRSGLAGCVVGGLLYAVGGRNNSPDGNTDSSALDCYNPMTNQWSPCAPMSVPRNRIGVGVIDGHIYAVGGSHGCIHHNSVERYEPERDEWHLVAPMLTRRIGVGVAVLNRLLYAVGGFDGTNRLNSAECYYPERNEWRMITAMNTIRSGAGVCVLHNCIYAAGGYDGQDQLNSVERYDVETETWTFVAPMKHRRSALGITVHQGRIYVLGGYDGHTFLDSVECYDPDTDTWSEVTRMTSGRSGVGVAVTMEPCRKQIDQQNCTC
UniProt O95816: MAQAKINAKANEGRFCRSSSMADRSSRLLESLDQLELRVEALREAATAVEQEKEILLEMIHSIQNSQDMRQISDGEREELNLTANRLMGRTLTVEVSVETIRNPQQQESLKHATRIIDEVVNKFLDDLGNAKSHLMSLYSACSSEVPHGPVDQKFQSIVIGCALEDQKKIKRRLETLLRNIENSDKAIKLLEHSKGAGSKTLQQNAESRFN
UniProt O60884: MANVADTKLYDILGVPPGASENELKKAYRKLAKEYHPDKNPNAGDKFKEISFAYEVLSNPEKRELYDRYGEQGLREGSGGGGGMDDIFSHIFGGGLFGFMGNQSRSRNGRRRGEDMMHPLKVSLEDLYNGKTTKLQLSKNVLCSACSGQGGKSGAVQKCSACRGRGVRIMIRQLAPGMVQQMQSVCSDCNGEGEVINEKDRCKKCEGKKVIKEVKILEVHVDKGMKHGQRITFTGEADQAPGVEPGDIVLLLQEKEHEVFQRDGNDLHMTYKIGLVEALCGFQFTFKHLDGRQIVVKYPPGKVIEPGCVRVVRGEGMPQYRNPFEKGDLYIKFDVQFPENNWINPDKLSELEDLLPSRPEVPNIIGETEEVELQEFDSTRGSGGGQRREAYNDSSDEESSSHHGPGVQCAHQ

In paper PMC11773481:

How the values were obtained:
[1] = target: FLAG-tagged wild-type DPP9 (UniProt Q86TI2); assay: affinity purification with mass spectrometry; FLAG-tagged GFP, DPP9 WT or DPP9 S730A transiently expressed in DPP8/9−/− HEK 293T cells, anti-FLAG agarose IP, quantitative mass spectrometry; enrichment relative to the GFP control IP
[2] = target: FLAG-tagged catalytically inactive S730A mutant DPP9 (UniProt Q86TI2); assay: as above

Substance | binding [1] | binding [2]
NDUFA4 (from UniProt O00483 1-81) | binds | binds
endogenous KEAP1 (from UniProt Q14145 1-624) | – | binds
BAG2 (from UniProt O95816 1-211) | binds | binds
DNAJA2 (from UniProt O60884 1-412) | binds | binds

Results are given in words; binding and its absence hold for the method and conditions named. Binding seen in cells or lysates may run through a third protein. A yes stands for co-enrichment or nearness to the bait. Other partners may have been found.
